{"source": "the supplement of paper PMC9103864", "system": "BMSC (primary human bone marrow mesenchymal stromal cells)", "assay": "drug sensitivity score (DSS); higher = more sensitive", "data": [{"smiles": "C[C@@H]1C[C@H](N)C[C@H](c2ccncc2NC(=O)c2ccc(F)c(-c3c(F)cccc3F)n2)C1", "note": "[PIM-447]", "values": [{"measurement": "drug sensitivity score", "result": 4.1}]}]}
